Experimental data: PubChem BioAssay AID1259254 (NCATS, 2017)
Screen: 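Genome-wide screen for genes that prevent DNA re-replication in cancer cells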 (primary screen). Cells: human HCT116 colorectal cancer cells. Knock-down reagent: single siRNA against human genes. Duration: 3 days. Detection: 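Imaged Hoechst DNA stain sorts each cell into a cycle phase by DNA amount; per plate, G2 fraction set to 0% for non-targeting and 100% for GMNN siRNA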. Scale: G2 robust z-score: higher = more G2 cells, more excess DNA replication. Hit rule: 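Active siRNAs have a G2 robust z of 5 or more median absolute deviations over the median, which in these data means about 38% or higher of GMNN control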.
The whole screen tested about 59,000 reagents; this is a part drawn at random. Of all reagents, about 1,550 (2.6%) were called active. 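G2 share is only a proxy for re-replication; each gene was hit by three separate siRNAs, and active genes were retested.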 Entries without a mark were called inactive. The numbers tell different reagents against one gene apart. Not all columns of the deposit are shown. No sequences are given here. Not given: the amount of reagent.

gene symbol | reagent no. | G2 robust z-score
BICRA | 1 | -0.839
BICRA | 2 | -0.369
BICRA | 3 | 1.23
RTKN2 (rhotekin 2) | 1 | -0.224
RTKN2 (rhotekin 2) | 2 | -0.968
RTKN2 (rhotekin 2) | 3 | -0.294
RABL3 (RAB, member of RAS oncogene family like 3) | 1 | 1.21
RABL3 (RAB, member of RAS oncogene family like 3) | 2 | -0.316
RABL3 (RAB, member of RAS oncogene family like 3) | 3 | 0.842
NUTM2A-AS1 (NUTM2A antisense RNA 1) | 1 | -1.01
NUTM2A-AS1 (NUTM2A antisense RNA 1) | 2 | 3.57
NUTM2A-AS1 (NUTM2A antisense RNA 1) | 3 | -0.749
OR2C1 (olfactory receptor family 2 subfamily C member 1) | 1 | 0.431
OR2C1 (olfactory receptor family 2 subfamily C member 1) | 2 | -1.24
OR2C1 (olfactory receptor family 2 subfamily C member 1) | 3 | -0.0394
ZNF610 (zinc finger protein 610) | 1 | 0.423
ZNF610 (zinc finger protein 610) | 2 | 1.32
ZNF610 (zinc finger protein 610) | 3 | 0.401
WDHD1 (WD repeat and HMG-box DNA binding protein 1) | 1 | -0.0785
WDHD1 (WD repeat and HMG-box DNA binding protein 1) | 2 | -0.56
WDHD1 (WD repeat and HMG-box DNA binding protein 1) | 3 | 7.97 (active)
IRX4 (iroquois homeobox 4) | 1 | -0.435
IRX4 (iroquois homeobox 4) | 2 | 1.08
IRX4 (iroquois homeobox 4) | 3 | -0.405

Entries listed above with an active call, once more:
gene symbol | reagent no. | G2 robust z-score
WDHD1 (WD repeat and HMG-box DNA binding protein 1) | 3 | 7.97 (active)

Continued:
gene symbol | reagent no. | G2 robust z-score
CAPN13 (calpain 13) | 1 | -1.33
CAPN13 (calpain 13) | 2 | -0.291
CAPN13 (calpain 13) | 3 | -0.369
PMS2 (PMS1 homolog 2, mismatch repair system component) | 1 | 0.413
PMS2 (PMS1 homolog 2, mismatch repair system component) | 2 | 0.817
PMS2 (PMS1 homolog 2, mismatch repair system component) | 3 | -0.814
COL27A1 (collagen type XXVII alpha 1 chain) | 1 | -0.242
COL27A1 (collagen type XXVII alpha 1 chain) | 2 | -0.562
COL27A1 (collagen type XXVII alpha 1 chain) | 3 | -0.228
TRIM47 (tripartite motif containing 47) | 1 | -0.583
TRIM47 (tripartite motif containing 47) | 2 | -0.345
TRIM47 (tripartite motif containing 47) | 3 | -0.081
IKBKB (inhibitor of nuclear factor kappa B kinase subunit beta) | 1 | 2.15
IKBKB (inhibitor of nuclear factor kappa B kinase subunit beta) | 2 | 0.469
IKBKB (inhibitor of nuclear factor kappa B kinase subunit beta) | 3 | 0.218
PLEKHA6 (pleckstrin homology domain containing A6) | 1 | -0.762
PLEKHA6 (pleckstrin homology domain containing A6) | 2 | -0.243
PLEKHA6 (pleckstrin homology domain containing A6) | 3 | -0.499
COL16A1 (collagen type XVI alpha 1 chain) | 1 | -0.756
COL16A1 (collagen type XVI alpha 1 chain) | 2 | 4.43
COL16A1 (collagen type XVI alpha 1 chain) | 3 | -0.793
FLJ13224 | 1 | -0.625
FLJ13224 | 2 | 0.619
FLJ13224 | 3 | -0.864
